Data: PubChem BioAssay AID504834 (National Center for Advancing Translational Sciences (NCATS), 2011)
Where “and” joins values, the source holds several entries; their conditions need not be identical. Equal entries are not always repeated. Among all 320,000 compounds or so, about 22,000 (6.9%) were called active. The shares of active, inactive and inconclusive entries below differ from those in the screen. The call rests on the fitted dose curve; in most records, active means well fitted inhibition curve with a large enough effect; inconclusive means small, poorly fitted or top-dose-only effect, or another doubt; inactive means no such curve, though single readings can be large or run the other way. A potency beside an inconclusive call is a rough fit, not a confirmed value.

Experiment: Primary qHTS for delayed death inhibitors of the malarial parasite plastid, 96 hour incubation
Details: P. falciparum luciferase reporter growth; series mostly up to 28.7 µM
In short: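 P. falciparum expressing integrated firefly luciferase grown in erythrocytes (2% hematocrit, 0.05% parasitemia final) with compounds for 96 hours at 37 C, 5% CO2. Growth inhibition read as loss of luminescence after adding luciferase detection reagent.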
Potency means the concentration at half of the fitted maximal effect.

| Compound | Potency |
| --- | --- |
| COc1ccc(CN(C2CCCC2)S(=O)(=O)c2ccc(-n3cnnn3)c(OC)c2)cc1OC | inconclusive: 0.0029 µM [inhibitor, full curve, poor fit] |
| O=C(Cc1ccc2ccccc2c1)Nc1ccccc1Br | active: 3.29 µM |
| COc1ccc(CCN2CC(C(=O)OCC(=O)NC(C)c3cccc(Cl)c3)CC2=O)cc1OC (stereo not drawn) | inconclusive: 18.5 µM [inhibitor, single point] |
| COc1ccc2c(Cl)c(C(=O)NCCc3ccc(S(N)(=O)=O)cc3)sc2c1 | inconclusive: 11.7 µM [inhibitor, single point] |
| CCOC(=O)CSc1nnc(-c2c[nH]c3ccccc23)n1CC | inactive |
| Cc1cc(C)nc(SCc2ccc(Br)cc2)n1 | inconclusive: 9.28 µM [inhibitor, partial curve, poor fit] |
| CCCOc1ccccc1/C=C1\SC(N2CCCCC2)=NC1=O | inconclusive: 10.4 µM [inhibitor, single point] |
| Cc1ccccc1COc1ccc(/C=C(\C#N)C(N)=O)cc1 | inconclusive: 2.08 µM [inhibitor, single point] |
| Cc1c(-c2cccc(NC(=O)c3ccco3)c2)nc2ncccn12 | inconclusive: 16.5 µM [inhibitor, single point] |
| O=C(CN1C(=O)c2ccccc2C1=O)NCC1CCCO1 (stereo not drawn) | inconclusive: 18.5 µM [inhibitor, single point] |
| COc1ccc(-c2noc(-c3ccccc3F)n2)cc1 | active: 9.28 µM |
| O=C(NCCN1CCN(c2ccccc2)CC1)c1cccn2c(=O)c3cc(Cl)ccc3nc12 | inconclusive: 13.1 µM [inhibitor, single point] |
| CCOc1ccc(C(c2c(C)[nH][nH]c2=O)c2c(C)[nH][nH]c2=O)cc1OC | inconclusive: 9.28 µM [inhibitor, partial curve, poor fit] |
| CCOc1cc(CN2CCN(C(=O)Cc3ccccc3)CC2)ccc1OC | inconclusive: 0.0029 µM [inhibitor, full curve, poor fit] |
| CC(C)C(NC(=O)c1ccccc1NC(=O)c1ccco1)C(=O)O (stereo not drawn) | inconclusive: 18.5 µM [inhibitor, single point] |
| COc1ccccc1NC(=O)c1cn(C)c(=O)c2cc(OC)c(OC)cc12 | active: 8.28 µM |
| CCOc1cc(N2CCOCC2)c(OCC)cc1NC(=O)CN1C(=O)NC(CC(C)C)C1=O (stereo not drawn) | inconclusive: 0.37 µM [inhibitor, partial curve, poor fit] |
| CCOP(=O)(OCC)c1nc(-c2ccccc2Cl)oc1N1CCOCC1 | inconclusive: 4.65 µM [inhibitor, partial curve, poor fit] |
| O=C(Nc1ccc2c(c1)OCCO2)C1CCN(C(=O)c2ccc(Cl)cc2)CC1 | inactive |
| Cc1cccc(N2C(=O)SC(SC(=Nc3ccccc3)Nc3ccccc3)C2=O)c1 (stereo not drawn) | inconclusive: 11.7 µM [inhibitor, partial curve, poor fit] |
| CCCCNc1ncnc2c1nnn2Cc1ccccc1Cl | inconclusive: 14.7 µM [inhibitor, single point] |
| NCCCn1cnc2ccccc21 | inconclusive: 18.5 µM [inhibitor, single point] |
| O=C(NCc1ccccc1)C(c1ccccn1)N(C(=O)c1csnn1)c1ccccc1F (stereo not drawn) | inactive |

| Compound | Potency |
| --- | --- |
| CC(C)CCN1CCN(Cc2ccc(C#CC(C)(C)O)s2)CC1CCO (stereo not drawn) | inconclusive: 10.4 µM [inhibitor, single point] |
| Cc1c(C(=O)NC2CCCc3ccccc32)oc2ccc(S(=O)(=O)N3CCCCC3)cc12 (stereo not drawn) | active: 1.85 µM |
| O=C(CN1CCN(S(=O)(=O)c2ccc(F)cc2)CC1)Nc1ccccc1F | inconclusive: 18.5 µM [inhibitor, single point] |
| O=c1[nH]c(=O)n([C@H]2C[C@H](O)[C@@H](CO)O2)cc1F | inconclusive: 19 µM [inhibitor, single point] and inconclusive: 18.5 µM [inhibitor, single point] |
| CN(NS(=O)(=O)c1ccccc1)c1nc2ccccc2nc1C(F)(F)F | inconclusive: 6.57 µM [inhibitor, partial curve, poor fit] |
| CN(CC(=O)Nc1ccccc1Cl)CC(=O)Nc1sc2c(c1C(N)=O)CCC2 | inconclusive: 18.5 µM [inhibitor, partial curve, poor fit] |
| CC(O)CNc1ncnc2cc(-c3ccc(F)cc3)sc12 (stereo not drawn) | inactive |
| CCC(C)N1C(=O)/C(=C/c2c(NCCCOC(C)C)nc3c(C)cccn3c2=O)SC1=S (stereo not drawn) | inconclusive: 1.17 µM [inhibitor, full curve, poor fit] |
| Cc1c(OC(C)C(=O)N2C[C@H]3C[C@@H](C2)c2cccc(=O)n2C3)ccc2c3c(c(=O)oc12)CCC3 (stereo partly drawn) | active: 10.4 µM |
| CCCCSc1n[nH]c(N)n1 | inactive |
| COc1ccc(C(=O)Nc2ccc3[nH]ncc3c2)cc1 | inactive |
| O=C(CCc1ccccc1)NNC(=O)c1ccc(Cl)cc1 | inconclusive: 10.4 µM [inhibitor, single point] |
| CCOc1ccc(NC(=O)C(CC(=O)O)Cc2ccccc2)cc1 (stereo not drawn) | inactive |
| O=C(Nc1cccc(-n2cccn2)c1)C1CCCN(Cc2ccc(C#CCCO)cc2)C1 (stereo not drawn) | inactive |
| Cc1ccc2c(c1)C1CN(C)CCC1N2C(=O)c1ccccc1NS(=O)(=O)c1cccc(C(F)(F)F)c1 (stereo not drawn) | inconclusive: 11.7 µM [inhibitor, single point] |
| C[n+]1c(-c2ccccc2)sc2ccccc21 | inactive |
| CC(=O)Nc1ccc(OCC(=O)N2CCc3ccccc3C2)cc1 | inactive |
| COc1ccccc1CNc1ccc(CNc2ncn[nH]2)cc1 | inconclusive: 18.5 µM [inhibitor, single point] |
| COc1ccc(S(=O)(=O)N2CCCCC2)cc1NC(=O)CCOc1cc(C)ccc1C | active: 11.7 µM |
| CC1=C(/C=C/C(C)=C/C=C/C(C)=C/C(=O)Nc2ccc(O)cc2)C(C)(C)CCC1 | inconclusive: 2.62 µM [inhibitor, full curve] and inconclusive: 15.1 µM [inhibitor, single point] |
| Cc1nn(C)cc1S(=O)(=O)N1CCCCC1C (stereo not drawn) | inactive |
| Cc1nccc(-c2ccc(-n3c(C)ccc3C)cc2)n1 | inconclusive: 6.57 µM [inhibitor, partial curve, poor fit] |
| CCOC(=O)CN1Cc2cccc(C(=O)O)c2C1=O | inconclusive: 0.928 µM [inhibitor, full curve, poor fit] |

| Compound | Potency |
| --- | --- |
| CCC(Cc1ccccc1)NS(=O)(=O)c1csc(C(N)=O)c1 (stereo not drawn) | inactive |
| COc1ccccc1N1CCN(C(=O)CN2C(=O)C3CCCCC3C2=O)CC1 (stereo not drawn) | inactive |
| Nc1[nH]n2c(=O)c3c(nc2c1N=Nc1ccc(Cl)cc1)CCCC3 | inconclusive: 2.08 µM [inhibitor, full curve, poor fit] |
| O=C(NCCCN1CCOCC1)c1cc(-c2ccc(Br)cc2)on1 | inconclusive: 7.38 µM [inhibitor, partial curve] |
| CC1(C)CC(=O)C(C=NCC2CCNCC2)=C(O)C1 | inconclusive: 18.5 µM [inhibitor, single point] |
| N#CCCn1cc(C(CC(=O)c2ccccc2)C(=O)O)c2ccccc21 (stereo not drawn) | inactive |
| O=C(Nc1ccc(C(=O)O)cc1)Nc1ccc([N+](=O)[O-])cc1 | inactive |
| COc1ccc(/C=C(/NC(=O)c2ccco2)C(=O)Nc2ccc(C(=O)O)cc2)cc1 | inconclusive: 18.5 µM [inhibitor, single point] |
| COc1ccc(-n2c(C)c(C(C)=O)c3cc(OCC(N)=O)ccc32)cc1 | inconclusive: 10.4 µM [inhibitor, partial curve] |
| OC(COc1ccc(CN2CCSCC2)cc1)CN1CCCCC1 (stereo not drawn) | inconclusive: 18.5 µM [inhibitor, single point] |
| CSc1ccccc1C(=O)OCC(=O)NC1CCS(=O)(=O)C1 (stereo not drawn) | inconclusive: 0.0828 µM [inhibitor, full curve, poor fit] |
| CCc1cc2c(Nc3ccccc3O)nc(C)nc2s1 | inconclusive: 10.4 µM [inhibitor, single point] |
| CCOC(=O)c1c(C)n(C)c2ccc(OC)c(NC(=O)CN3CCSCC3)c12 | inconclusive: 18.5 µM [inhibitor, single point] |
| O=C(NC1CCCCC1)C(c1ccc2ncccc2c1)N(Cc1ccc(F)cc1)C(=O)c1ccc2c(c1)OCCO2 (stereo not drawn) | active: 10.4 µM |
| CN(Cc1nccs1)C(=O)C1CCC(=O)N(Cc2ccccc2F)C1 (stereo not drawn) | inconclusive: 1.47 µM [inhibitor, full curve] |
| Cc1occc1-c1nnc(SCC(=O)Nc2ccccc2)n1C(C)c1ccccc1 (stereo not drawn) | inconclusive: 8.28 µM [inhibitor, partial curve] |
| COc1ccccc1NC(=O)CCSCCC(=O)Nc1ccccc1OC | inconclusive: 14.7 µM [inhibitor, single point] |
| C[C@H](NC(=O)Nc1ccccc1F)C(=O)O | inconclusive: 18.5 µM [inhibitor, single point] |
| O=C(CN1CCN(S(=O)(=O)c2ccccc2)CC1)Nc1ccc(Cl)cn1 | inactive |
| CS(=O)(=O)C1=NSC2=NC(=O)/C(=C\c3cccn3-c3ccccc3Cl)C(=N)N21 | inconclusive: 5.86 µM [inhibitor, single point] |
| CCCCC(=O)OCC(=O)c1ccc(OCC)cc1 | inconclusive: 13.1 µM [inhibitor, single point] |
| O=C(Nn1cnc2ccccc2c1=O)C1CCCCC1 | inconclusive: 9.28 µM [inhibitor, single point] |
